Results taken from paper PMC5111407.

Sequences of proteins named here, by UniProt entry; tags and fusion partners are left off. A change or cut given only in a name is not applied to a line headed by its entry.
UniProt A0A1D8PRH3: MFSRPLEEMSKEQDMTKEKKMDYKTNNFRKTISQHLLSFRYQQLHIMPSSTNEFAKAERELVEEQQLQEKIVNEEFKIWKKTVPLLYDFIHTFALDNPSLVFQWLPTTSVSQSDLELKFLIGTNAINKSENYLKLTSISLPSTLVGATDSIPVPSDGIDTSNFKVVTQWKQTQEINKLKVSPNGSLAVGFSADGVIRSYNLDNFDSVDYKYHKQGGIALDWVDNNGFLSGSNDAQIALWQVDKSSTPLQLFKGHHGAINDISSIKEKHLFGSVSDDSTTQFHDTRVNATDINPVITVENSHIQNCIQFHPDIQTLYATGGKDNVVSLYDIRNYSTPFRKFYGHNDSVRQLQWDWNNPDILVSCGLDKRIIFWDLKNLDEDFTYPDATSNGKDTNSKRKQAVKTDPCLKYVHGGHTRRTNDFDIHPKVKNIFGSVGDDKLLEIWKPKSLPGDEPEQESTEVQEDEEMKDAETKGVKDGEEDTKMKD
UniProt A0A1D8PIP3: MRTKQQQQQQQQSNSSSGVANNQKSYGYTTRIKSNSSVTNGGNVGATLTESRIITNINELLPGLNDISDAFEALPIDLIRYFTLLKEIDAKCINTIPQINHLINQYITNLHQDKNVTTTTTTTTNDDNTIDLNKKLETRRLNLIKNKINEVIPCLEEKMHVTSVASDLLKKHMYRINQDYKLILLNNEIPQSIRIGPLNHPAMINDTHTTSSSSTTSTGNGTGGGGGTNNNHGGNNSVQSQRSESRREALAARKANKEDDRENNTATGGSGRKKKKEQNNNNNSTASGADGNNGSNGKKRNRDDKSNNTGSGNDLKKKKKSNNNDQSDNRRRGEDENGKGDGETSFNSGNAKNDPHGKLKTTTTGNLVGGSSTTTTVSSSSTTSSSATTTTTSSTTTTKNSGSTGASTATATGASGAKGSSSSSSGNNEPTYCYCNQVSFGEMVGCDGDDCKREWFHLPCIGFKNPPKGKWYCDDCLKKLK
UniProt A0A1D8PCC3: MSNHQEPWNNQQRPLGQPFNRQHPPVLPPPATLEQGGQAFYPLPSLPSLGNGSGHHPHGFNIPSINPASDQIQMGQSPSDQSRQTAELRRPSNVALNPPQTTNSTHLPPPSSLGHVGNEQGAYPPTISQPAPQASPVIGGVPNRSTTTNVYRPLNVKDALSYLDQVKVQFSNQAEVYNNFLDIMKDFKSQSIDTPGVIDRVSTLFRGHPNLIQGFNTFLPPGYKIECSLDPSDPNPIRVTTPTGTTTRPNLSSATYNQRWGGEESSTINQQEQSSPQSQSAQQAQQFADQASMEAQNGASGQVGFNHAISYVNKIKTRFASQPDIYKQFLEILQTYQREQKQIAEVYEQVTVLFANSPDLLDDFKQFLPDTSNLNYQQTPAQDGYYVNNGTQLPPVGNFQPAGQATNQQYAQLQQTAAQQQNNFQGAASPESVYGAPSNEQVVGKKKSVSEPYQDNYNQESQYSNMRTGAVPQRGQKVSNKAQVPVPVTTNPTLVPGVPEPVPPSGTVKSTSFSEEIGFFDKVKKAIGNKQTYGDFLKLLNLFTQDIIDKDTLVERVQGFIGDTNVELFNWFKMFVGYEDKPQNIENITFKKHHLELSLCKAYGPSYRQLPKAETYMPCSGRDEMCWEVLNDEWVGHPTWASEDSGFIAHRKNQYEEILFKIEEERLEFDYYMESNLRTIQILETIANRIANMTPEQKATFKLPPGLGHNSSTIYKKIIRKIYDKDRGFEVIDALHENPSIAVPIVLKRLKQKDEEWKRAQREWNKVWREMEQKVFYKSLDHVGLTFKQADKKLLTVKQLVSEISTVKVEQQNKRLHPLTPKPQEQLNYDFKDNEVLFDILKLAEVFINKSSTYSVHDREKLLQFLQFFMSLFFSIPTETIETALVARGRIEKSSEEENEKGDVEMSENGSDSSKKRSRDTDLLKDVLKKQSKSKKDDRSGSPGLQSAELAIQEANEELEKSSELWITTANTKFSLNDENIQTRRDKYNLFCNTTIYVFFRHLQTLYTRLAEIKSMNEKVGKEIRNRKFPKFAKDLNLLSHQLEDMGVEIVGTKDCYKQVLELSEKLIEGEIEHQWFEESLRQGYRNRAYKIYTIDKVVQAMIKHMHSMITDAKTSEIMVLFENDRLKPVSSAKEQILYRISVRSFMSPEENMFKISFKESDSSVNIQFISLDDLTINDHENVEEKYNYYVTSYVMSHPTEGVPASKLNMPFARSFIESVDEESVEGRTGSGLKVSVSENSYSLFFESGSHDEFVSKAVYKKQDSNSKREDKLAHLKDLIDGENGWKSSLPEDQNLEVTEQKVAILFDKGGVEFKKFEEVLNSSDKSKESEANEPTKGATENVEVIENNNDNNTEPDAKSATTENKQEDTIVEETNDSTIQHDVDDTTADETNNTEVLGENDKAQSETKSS

Target: T1, Rpd31-9myc (Candida albicans) (UniProt Q5ADP0)
T1 sequence: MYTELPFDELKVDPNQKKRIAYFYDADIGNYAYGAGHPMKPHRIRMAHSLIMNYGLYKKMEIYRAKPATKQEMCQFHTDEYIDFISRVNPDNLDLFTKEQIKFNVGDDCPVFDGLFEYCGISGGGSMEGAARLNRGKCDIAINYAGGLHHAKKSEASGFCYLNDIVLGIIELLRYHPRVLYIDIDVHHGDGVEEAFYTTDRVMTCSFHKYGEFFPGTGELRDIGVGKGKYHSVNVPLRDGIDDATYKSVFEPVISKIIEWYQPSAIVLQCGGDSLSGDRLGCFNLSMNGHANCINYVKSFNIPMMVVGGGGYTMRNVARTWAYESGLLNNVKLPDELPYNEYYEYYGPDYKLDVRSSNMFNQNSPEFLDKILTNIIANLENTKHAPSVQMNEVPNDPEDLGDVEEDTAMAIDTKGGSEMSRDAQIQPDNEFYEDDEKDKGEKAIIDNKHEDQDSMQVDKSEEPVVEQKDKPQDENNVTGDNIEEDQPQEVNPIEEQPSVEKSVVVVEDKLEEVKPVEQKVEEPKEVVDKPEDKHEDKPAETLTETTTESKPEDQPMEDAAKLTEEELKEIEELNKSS
Test: affinity purification with mass spectrometry; whole-cell extracts of 9myc-tagged C. albicans strains precipitated with anti-myc antibody (4A6) on protein G Dynabeads; lysis buffer 10 mM Tris-Cl pH 8.0, 150 mM NaCl, 0.1% Na-deoxycholate; 10% SDS-PAGE, silver staining, bands cut out and identified by LC-MS against an untagged control

| Substance | binding |
| --- | --- |
| Ume1 (orf19.7185 product) (from UniProt A0A1D8PRH3) | binds |
| Dep1 (Candida albicans (endogenous)) | binds |

Second part, the substance after the results:

| binding | Substance |
| --- | --- |
| binds | Pho23 (from UniProt A0A1D8PIP3 1-481) |
| binds | Rxt2 (Candida albicans (endogenous)) |
| binds | Sin3 (from UniProt A0A1D8PCC3 1-1411) |

These are yes or no findings as the source states them, for the method shown. In cells and extracts the contact can be indirect. Here binding means that the protein was enriched with, or labelled near, the bait; the list need not be complete. Tags and fused reporters may be left off the sequences shown.
